In patent US20210347873A1 (SHANGHAI PHARMAEXPLORER, published 2021):
No constants are given. Whether binding was seen depends on the method and setting. Some results given as binding are weak or reduced against the parent protein; the word gives no strength.

The chains behind the UniProt entries cited, without tags or fusion partners. Where a name states a change or a piece, a line headed by the entry shows the natural chain unless it says otherwise.
UniProt Q9Y275: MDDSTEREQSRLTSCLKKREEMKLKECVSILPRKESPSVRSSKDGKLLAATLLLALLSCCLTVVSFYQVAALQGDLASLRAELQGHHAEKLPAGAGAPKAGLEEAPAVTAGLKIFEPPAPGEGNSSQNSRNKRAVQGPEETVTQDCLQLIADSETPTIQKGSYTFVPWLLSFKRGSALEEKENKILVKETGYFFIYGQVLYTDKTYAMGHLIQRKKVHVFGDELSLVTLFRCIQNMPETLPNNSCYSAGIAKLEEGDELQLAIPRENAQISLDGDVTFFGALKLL

B1: L9G7 (antibody, human IgG1, V domains shown)
VH: QIQLVQSGAEVKKPGASVKVSCKASGYTFTSYGISWVRQAPGQGLEWMGWISAYNGNTNYAQKLQGRVTMTTDTSTSTAYMELRSLRSDDTAVYYCARTYYDILTGYYYYGMDVWGQGTTVTVSS
VL: EIVLTQSPGTLSLSPGERATLSCRTSQSVDTYLAWYQQKPGQAPRLLIYDASNRATGIPARFSGSGSGTDFTLTISSLEPEDFAVYYCQQRSNWPLTFGGGTKVEIK
B2: L1D12 (antibody, human IgG1, V domains shown)
VH: QVQLVQSGGGLVQPGGSLRLSCAASGFTVSSNYMSWVRQAPGKGLEWVSVIYSGGSTYYADSVKGRFTISRDNSKNTLYLQMNSLRAEDTAVYYCARGFHDILTGYGMDVWGQGTTVTVSS
VL: SSELTQDPAVSVALGQTVRITCQGDSLRNYYAGWYQQKPGQAPVLVIYGKNNRPSGIPDRFSGSSSGNTASLTITGTQAEDEADYYCSSRDNSGTHLVEFGGGTKLTVL
B3: 35E6F7C3 (antibody, V domains shown)
VH: EVQLQQSGAELVKPGASVKLSCTAAGFNIQDTYIHWVKQRPEQGLEWIGRIDPANANTVYDPKFQGKATITADTSSNTAYLQVSSLTSEDTAVYYCASPVITAGFAYWGQGTLVTVSA
VL: QIVLTQSPAIMSASPGEKVTMTCGASSSVNYVHWYQQKSGTSPKRWIYDTSKLASGVPARFSGSGSGTSYSLTISSMEAEDAATYYCQQWTRSPLTFGAGTKVELK
B4: 8E7D9C7F5 (antibody, V domains shown)
VH: QVQLQQSGVELARPGASVKLSCKASGYTFTSYGISWVKQRTGQALEWIGEIYPRSGNTYYNEKFKGKATLTADKSSSTAYMELRSLTSEDSAVYFCARSGPITTLVATDYGMDYWGQGTSVTVSS
VL: DIVLTQSPASLAVSLGQRATISCRASKSVSTSSYSYMHWYQQKPGQPPKLLIKFASNLESGVPARFSGSGSGTDFTLNIHPVEEEDAATYYCQHSREFPYTFGGGTKLEIK
B5: 20D1B6E9E5 (antibody, V domains shown)
VH: EVQLQQSVAELVRPGASVKLSCTASDFNIKNTYIHWVKQRPEQGLEWIGRIDPVNGNTKYAPKFQDKATIIVDTYSNTAYLQLSSLASEDTAVYYCARWPITTIVATDWYFDVWGTGTTVTVSS
VL: DVLMTQTQLALPVRLGEQASISCRSSQSIVNSNGNTYLEWYLQKPGQSPKLLIYKVSNRFSGVPDRFSGSGSGTDFTLKISRVEAEDLGVYYCFQGSHVPWTFGGGTKLEIK
B6: 78C11D2D12 (antibody, V domains shown)
VH: QVQLQQSGAELVRPGTSVKISCKASGYAFTNYWLGWVKQRPGHGLEWIGDIYPGSGNTYYNEKFKGKATLTADKSSSTAYMQLSSLTSEDSAVFFCAAYLYAMDYWGQGTSVTVSS
VL: QIVLTQSPAIMSASPGEKVTITCSASSSVSYMHWFQQKPGTSPKLWIYSASNLASGVPARFSGSGSGTSYSLTISRMEAEDAATYYCQQRGSYPFTFGSGTKLEIK
B7: 89A2G5E7 (antibody, V domains shown)
VH: QVQLKESGPGLVAPSQSLSITCTVSGLSLNSHDISWIRQPPGKGLEWLGVIWSGGGTKYNSAFMSRLSISKDNSKSQVFLKMNSLHTDDTAIYYCVRTPSMITYSAMDYWGQGTSVTVSS
VL: EIVLTQSPALMAASPGEKVTITCSVSSSISSRNLHWYQQKSQTSPKAWIHATSNLASGVPVRFSGSGSGTSYSLTISSMEAEDAATYYCQQWSSYPLTFGSGTKLEIK
B8: 97E7B3F2 (antibody, V domains shown)
VH: EVQLQQSGPELVKSGASVKISCKASGYTFTDHKMHWVKQSHGKSLEWIGYISPYNGGTGYNQKFKSKVTLTVDISSSTAYMELRSLTSEDSAVYYCARWGFYDVMDSWGQGTSVTVSS
VL: DVLLTQTPLSLPVSLGDQASISCRSSQTIVHIIGDTYLEWYLQKPGQSPKLLIYKVSNRFSGVPDRFSGSGAGTDFTLKISRVEAEDLGVYYCFQGSHVPRTFGGGTKLEIK
B9: 97A3C2H4 (antibody, V domains shown)
VH: EVKLVESGGGLVQPGGSLKLSCAASGFTFSTYTMSWVRQTPEKRLEWVAYISYGGGSTSYPDTVKGRFTISRDNAKNTLYLQMSSLKSEDTAIYYCTRHVTVVENSMDYWGQGTSVTVSS
VL: DILLTQSPDILSVSPGERVSFSCRASQSIGTSIHWYQQRTNGSPRLLIKYVSESFSGTPSRFSGSGSGTAFTLTINSVESEDIADYYCQQTHSWPWTFGGGTKLEIK
B10: 67A2E1D10 (antibody, V domains shown)
VH: EVQLQQSGAELVKPGASVKLSCTASGFNIKNYYMHWVKQRTEEGLEWIGRIDPEDGETKYAPKFQAKATITADTSSNTAYLQLSSLTSEDTAVYFCARKGYYGNYGAWFAYWGQGTLVTVSA
VL: DIQMTQSPASLSVSVGETVTITCRASEDLYSNLAWYQQKQGKSPQLLVYAATFLADGVPSRFSGSGSGTQYSLKINSLQSEDFGNYYCQHFWGTPPTFGGGTKLEIK
B11: 111D10D6G3 (antibody, V domains shown)
VH: QVQLQQPGAELVKPGASVKMSCKASGYTFTRHWITWVKQRPGQGLEWIGDIFPGSGSINYNEKFKSEATLTVEKSSSTAYMQLSSLTSEDSAVYYCARGDVDVWGTGTTVTVSS
VL: DIQMTQSPSSLSASLGERVSLTCRASQEIRGYLSWLQQKPNGTIKRLIYAASTLDSGVPKRFSATRSGSDFSLTISSLESEDFADYYCLQYASYPFTFGSGTKLEIK
B12: 93C6F10D3 (antibody, V domains shown)
VH: EVQLVESGGGLVTPGGSLKLSCVASGFAFSTYGMSWVRQTPERRLEWVAYISGGGGSIYYPDSVKGRFTISRDNAKNILYLQMSSLKSEDTAMYHCTRHPDLLLRYDYALDHWGQGTSVTVSS
VL: DIQMTQSPASLSASVGETVTITCRASENIHIYLAWYQQKQGKSPQLLVYNGKTLADGVPSRFSGSGSGTQYSLKINTLQPEDFGNYYCQHFWNSTWTFGGGTKLEIK

biological target: cynomolgus BLyS (full length, arginine 132 mutated to histidine) on CHO-K1 cells (cynomolgus); assay: FACS on CHO-K1-cynoBLyS cells

binding, binds:
B1, B2, B3, B4, B5, B6, B7, B8, B9, B10, B11, B12

biological target: human BLyS (full length, arginine 132 mutated to histidine) on CHO-K1 cells (human) (UniProt Q9Y275); assay: FACS on CHO-K1-hBLyS cells

binding, binds:
B1, B2, B3, B4, B5, B6, B7, B8, B9, B10, B11, B12

biological target: mouse BLyS protein (mouse, UniProt Q9WU72 69-309); assay: told from the mouse B lymphocyte proliferation assay with mouse BLyS (functional)

binding, binds:
B1

biological target: cynomolgus BLyS (full length, arginine 132 mutated to histidine) on CHO-K1 cells (cynomolgus); assay: flow cytometry (FACS) on CHO-K1 cynoBLyS cells, Alexa 488 secondary antibody

binding, binds:
B1, B2, B3, B4, B5, B6, B7, B8, B9, B10, B11, B12

biological target: human BLyS (full length, arginine 132 mutated to histidine) on CHO-K1 cells (human) (UniProt Q9Y275); assay: flow cytometry (FACS) on CHO-K1 hBLyS cells, Alexa 488 secondary antibody

binding, binds:
B1, B2, B3, B4, B5, B6, B7, B8, B9, B10, B11, B12
